Out of some 31,000 sequences screened, about 1,400 (4.5%) were called active.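 How the source made its calls: active means median seed-adjusted z-score above 1 or below -1; inactive means the rest.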 The list shows a part of the results.
Assay: Novel Modifiers of Survival Motor Neuron (SMN) Protein: Gene Identification via Genome-wide siRNA Screen;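 further: luminescence tracks full-length SMN protein made from the SMN2 reporter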
Settings: HEK293T SMN2-luciferase reporter, siRNA knockdown, 72 h; actives lie on both sides
In short: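 HEK293T cells stably expressing an SMN2 splicing/cDNA-luciferase reporter were reverse-transfected with a druggable-genome siRNA library and read by luminescence at 72 hours; hits defined by MAD score above 1.0 or below -1.0.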

Sequence | median seed-adjusted z-score
CAGCGGUUUUGAAUGACUATT against IKZF3 | inactive: 0.0181
GGUUCCCACUUAAAAAUUATT against BID | inactive: 0.342
CCGGGACCCUGUUCAAGAATT against NAGS | inactive: 0.0484
GAGUUAGAGGACAACUUAATT against ZFP30 | inactive: 0.211
GCAGAAAACUCACCCGAGATT against PCDHB7 | inactive: 0.365
CUAUCAUCGAGAUUGCAGATT against ARHGAP30 | inactive: 0.0946
CGUUUGUAGAUGACAAUGATT against NFE2L2 | inactive: -0.596
GCACUUUACUAGGUCUAGATT against NANOS1 | inactive: 0.369
CCUGUGGUUUGCUAUCUAATT against SLC24A5 | inactive: -0.166
GAGCUACAUUACUAAGUCATT against ZNF223 | inactive: 0.367
GGCUGGAGCGUGAUGUAUATT against CYP26C1 | inactive: -0.276
CCCUAAUUCUUCGUCAUAATT against AMIGO2 | inactive: -0.258
GGCUAGCUGAUAUCAGUUUTT against DDX31 | inactive: 0.0144
GCUUUUCGGAUGCCCGAGATT against LRRN2 | inactive: 0.324
GGCUGUACAAGCUCACGUATT against MTTP | inactive: 0
CCUCACACUUGAUUCAGUUTT against RPP38 | inactive: 0.07
GUUCAGACCUGAUUAGGCATT against ZNF623 | inactive: 0.272
GACCUUCCACAGUACAUCATT against MAST3 | inactive: -0.642
GCAGAGAACUGGUUCCGAATT against ZNF512B | inactive: 0.212
CAUAGAAAAUAUGCAGUUUTT against MPZL1 | inactive: 0.376
GAGCUUCGCUUGCAAGAAUTT against AQP11 | inactive: -0.0455
GGAAGUUCAUGCCUCUGGATT against UBA7 | active: 2.41

Sequence | median seed-adjusted z-score
GGCUGCAACUGUAUAUCUATT against HAO1 | inactive: 0.421
AAUUUAUACUGCCAUCUUATT against HSPA1A | inactive: -0.833
GUCCAUAGAUGACAUCGAATT against ZC3H7B | inactive: -0.093
CUGGUGUUCUUUGAACUGATT against TMED1 | inactive: 0
CAGCGUAUUUGAGAAUUUATT against ATRX | inactive: -0.158
UGAAGAAAGCGGAAAAGAATT against CSTF3 | inactive: 0.0879
CGGACAUUCUCAUCAAUGATT against HTR3A | inactive: 0.37
GGCUUGCUAGAGAAGUUUUTT against METAP1 | inactive: -0.139
GAGUGGUACAGUUCGAACATT against SYNJ1 | inactive: 0
CUAUUUCUCAAAAUGGAUATT against MPN2 | inactive: 0.108
GCAGCUCCAGUAACCUCAATT against ZNF683 | inactive: -0.452
CUUCGUAUGUUUACAAGAATT against GUCY2C | inactive: -0.0181
GGAUCAAUACUCCAACAAATT against ZNF281 | active: 1.19
GGAUUAAACUACAUCAAGATT against PTPN1 | inactive: 0.05
GAGAGAUCAUUGCAAAGCATT against HNRNPM | inactive: 0.499
CGAAUAGUAUGUCAGAUGATT against HIPK3 | inactive: -0.00424
GAAAAUCAGGGAUGUAUUATT against ZNF140 | inactive: 0.587
CUCUGAAGAUUGAUAUUCUTT against IFI16 | inactive: -0.0178
CCUUGAUCAUCGACAUUCUTT against GIT1 | inactive: -0.307
GGUAAGGUCAAAGCCCUAATT against RNASEL | inactive: 0
GCUGUAACCUCUUCAUCUATT against BRUNOL6 | inactive: -0.542
CACUUAAAGACAACCCAAATT against STARD4 | inactive: 0.173

Sequence | median seed-adjusted z-score
GGGACAAACCACAUUAGUATT against TRIM33 | inactive: 0.316
CACACACACCAGCAAGAUATT against MAX | inactive: 0.0949
GUACGAUAUAUAACAAUGATT against ANKRD30A | inactive: 0.259
GGGAGAGAGAUUAAGAAGATT against PHF1 | inactive: -0.196
UGGACUUCGUGGUUCAGCATT against SULT1A1 | inactive: -0.26
GCUCUACUAUGAGAAUGAATT against CRHR2 | inactive: -0.211
CUCCAUUGCUUGUAAAGCUTT against USP26 | inactive: -0.0505
CAAUGGAGAUUCAACAGAATT against NME7 | inactive: -0.331
GCCCAGAGACUAUGGAGUATT against PAQR4 | inactive: 0.316
GGACCAUCGGGAUCAUCAATT against P2RX3 | inactive: -0.44
CCCAAGUCAUUUAAAGUCATT against CYP1B1 | inactive: -0.261
CCUUCGAGCUGCUAUUAAUTT against TLR10 | inactive: -0.363
CCAGUUCAGUUCGAAGACATT against ZNF441 | inactive: 0.578
GGACUGAUGCAGUGGAUUATT against SLC28A3 | inactive: -0.107
ACAAAGUGUUUAAGCGGUUTT against ZNF714 | inactive: 0
AGAGCAUCAUCAACCAGGUTT against STAR | inactive: 0.478
CUACGACUUUUCCAAUAUATT against SLC6A4 | active: 1.43
GGAUGUGGUUGAGUACCUATT against ZFYVE26 | inactive: 0.0495
GGAAGACGAUCUGAACCGATT against EPS15L1 | inactive: -0.0511
GGUCUAAGGAUAUAGGAUATT against CRP | inactive: -0.212
AGGACGAGCUGGAUACGGATT against NXNL1 | inactive: 0.334
GGAGAAUACCUAUCGUGAUTT against PTPN9 | inactive: 0.148

5 records picked at random from those above:
Sequence | median seed-adjusted z-score
CCUCACACUUGAUUCAGUUTT against RPP38 | inactive: 0.07
CAAUGGAGAUUCAACAGAATT against NME7 | inactive: -0.331
CUACGACUUUUCCAAUAUATT against SLC6A4 | active: 1.43
CCGGGACCCUGUUCAAGAATT against NAGS | inactive: 0.0484
CUCUGAAGAUUGAUAUUCUTT against IFI16 | inactive: -0.0178

Going on with the list:

Sequence | median seed-adjusted z-score
CCAUAAGGUGUAUACGACATT against GGCX | inactive: -0.362
GGCAGGCUCUGAACUAUGATT against APCS | inactive: 0.0494
GCAAGUCCACGUUCCUCAATT against GNA12 | inactive: 0.598
CAAGUAUAUUGAACGAGGATT against SLITRK4 | inactive: -0.015
CUAUAACAUUGGGAAUUAUTT against LEPRE1 | inactive: 0.121
GGAAGUGAAUUAUCACGUUTT against ALPK1 | inactive: -0.0149
CCAUGAACAUUGUGAGCAATT against GAPDHS | inactive: -0.674
CAAAUGGGCUUGAUAAGAUTT against CCT5 | inactive: 0
GCCUCAGGGAUAAUCCACATT against AGBL5 | inactive: 0.0343
GGAAUGGUGUUGAUACAAATT against RPS6KC1 | inactive: 0.344
GAGAAGAACUCGUACCUCUTT against ZNF783 | inactive: 0.284
GAUGGGCACUGUGACCGAATT against PAX7 | inactive: -0.803
GUGAAGACCUGGUAUCAGATT against BARX2 | inactive: -0.206
GGGAUCCAGUGUCACGUUATT against HS6ST3 | inactive: -0.405
GGCGAUCACGAGAACAAUATT against ADAM17 | inactive: 0
CAACCUAUCCGGUUUGUGATT against RAB3IP | inactive: -0.191
CCAAAAGACUUUCAUCGUATT against SCN5A | inactive: -0.167
GCAGAAUAACCUCCAGUAUTT against SLC35A2 | active: 1.06
AGUCAGAGUUGAACAGGUATT against AREG | inactive: 0.104
GCUGUUGUCUGAUAUAAGUTT against ATG4A | inactive: -0.288
GCAGCUGAGUUCUACAAGATT against RAG1 | active: -1.35
CGACCUCUGUUCGAGAAGATT against F2 | inactive: 0.286

Sequence | median seed-adjusted z-score
GUCGUGAACUGGACAAUAATT against RASGRF1 | inactive: 0
CCAAAGCUCUAACCAUGGATT against CLEC4F | inactive: 0.347
AGUUUGCGAUCGUGCGGAATT against DAPK3 | inactive: -0.105
GUGUAUCUUUGAUCGGGAATT against LAMC2 | inactive: -0.186
CAACGUGCCUUAUUCCAUATT against HHIP | inactive: 0
CGACGGUGGAAGACACCUATT against DIRAS2 | active: -1.25
CGACCCAGACAAUAGACUATT against CCNT1 | inactive: -0.72
CCUACUUCGGAGUCUAUGATT against SLC25A4 | inactive: -0.379
CGAUGACCUUACUAGCUCATT against PPP2R5A | inactive: 0.37
CUAUCAGGAUGUAGACAAATT against SLC27A6 | inactive: -0.172
CUUCCACCCGAGUACCUUUTT against HDAC10 | inactive: -0.165
CUACGAAACCUGAAAUUCATT against SFRS14 | inactive: -0.312
GGGUGUAUGAUGACCUCAATT against RENBP | inactive: 0.587
GGAAGAAGAUCCUAUUUUATT against ALG2 | inactive: 0.631
GCAGUUGACAGGACAUUCATT against TLN1 | inactive: -0.0619
GGAACGCACUAAACCCUCATT against FXR2 | inactive: -0.133
GCAGUAAUGUUGAUAUAGATT against VDAC3 | inactive: 0.646
GACCACAACCUCUUCAGUATT against DHFR | inactive: -0.952
GGAUCAAGAAUGUUGAGGATT against THBS3 | inactive: 0.429

From PubChem BioAssay AID1347426 (Functional Genomics Laboratory (NCATS/FGL), 2020)
